Laboratory results: PubChem BioAssay AID1259405 (NCATS, 2018)
The deposit covers about 50,000 reagents; shown is an unselected part. About 4,000 of all reagents (8%) were called active. 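Mouse siRNA library applied to hamster cells; one well for each siRNA.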 A number with no mark means an inactive call. The numbers tell different reagents against one gene apart.

Test: 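Knock-downs that lift recombinant protein yield in hamster ovary cells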 (primary screen)
Cell system: Chinese hamster CHO-K1 ovary cells with stable secreted eGFP expression
Knock-down reagent: single siRNA against mouse genes, 0.8 pmol siRNA per well (2 µl of 400 nM stock)
Duration: 3 days
Measurement: 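Percent of the per-plate non-targeting control median for intracellular GFP per well by laser scanning cytometry and for cell viability by ATP luminescence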
Reading the numbers: GFP, % of control: higher = more GFP per well, higher productivity; viability (ATP), % of control: higher = more viable cells (more ATP)
Active means: 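a knock-down is called active if GFP reaches 120% or more of non-targeting control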

gene | reagent | GFP, % of control | viability (ATP), % of control
Sytl4 | 1 | 89 | 131
Sytl4 | 2 | 93.5 | 101
C2cd2 | 1 | 95.8 | 82.8
C2cd2 | 2 | 79.1 | 87.3
C2cd2 | 3 | 101 | 97.1
St13 | 1 | 97.2 | 107
St13 | 2 | 114 | 107
Rnf11 | 1 | 67.7 | 61
Rnf11 | 2 | 56.4 | 62.3
Rnf11 | 3 | 72.6 | 83
Kcnd3 | 1 | 76.3 | 104
Kcnd3 | 2 | 177 (active) | 122
Kcnd3 | 3 | 124 (active) | 135
Prkcd | 1 | 81.3 | 84.6
Prkcd | 2 | 110 | 104
Prkcd | 3 | 92.6 | 76
Greb1 | 1 | 96 | 85.8
Greb1 | 2 | 130 (active) | 113
Greb1 | 3 | 95.1 | 93
Arpc1a | 1 | 43.3 | 45.1
Arpc1a | 2 | 68.3 | 67.7
Arpc1a | 3 | 66.1 | 78.5
Zfp101 | 1 | 31.2 | 21.6
Zfp101 | 2 | 79.8 | 77.9
Zfp101 | 3 | 77.4 | 77.3
Cyp2d26 | 1 | 50.3 | 66.5
Cyp2d26 | 2 | 59.1 | 72.5
Cyp2d26 | 3 | 81.8 | 81.1
Mrps12 | 1 | 96 | 53.6
Mrps12 | 2 | 64.5 | 68.1
Mrps12 | 3 | 126 (active) | 113
Or8g34 | 1 | 80.8 | 85.7
Or8g34 | 2 | 44.5 | 51.2
Or8g34 | 3 | 84.4 | 76.9
A830039N20Rik | 1 | 73.1 | 60.2
A830039N20Rik | 2 | 140 (active) | 97.8
A830039N20Rik | 3 | 80.1 | 82.6
Serpinb1b | 1 | 80.2 | 67
Serpinb1b | 2 | 66.4 | 73.6
Serpinb1b | 3 | 103 | 111
Pcdhb12 | 1 | 67.3 | 83
Pcdhb12 | 2 | 80.1 | 57.3
Pcdhb12 | 3 | 71.3 | 82.5
Apol10a | 1 | 51.7 | 72.1
Apol10a | 2 | 50.7 | 59.3
Apol10a | 3 | 90.5 | 88.2
Ryr3 | 1 | 85.3 | 87.1
Ryr3 | 2 | 77.7 | 53.1
Ryr3 | 3 | 61.4 | 63.5
Slf2 | 1 | 63.9 | 34.5
Slf2 | 2 | 107 | 103
Slf2 | 3 | 113 | 123
Rhbdd1 | 1 | 63.5 | 30.6
Rhbdd1 | 2 | 63.2 | 89.3
Rhbdd1 | 3 | 75.2 | 96.3
Nucb1 | 1 | 50 | 43
Nucb1 | 2 | 83.7 | 82.4
Tmem53 | 1 | 84 | 72.8
Tmem53 | 2 | 68.3 | 73.3
Tmem53 | 3 | 68.2 | 67.3
Gys2 | 1 | 156 (active) | 85.1
Gys2 | 2 | 147 (active) | 140
Gys2 | 3 | 70.7 | 87.4
Scnn1b | 1 | 63.7 | 102
Scnn1b | 2 | 165 (active) | 93.1
Scnn1b | 3 | 70.1 | 60.3
Sh2d3c | 1 | 89.7 | 64.4
Sh2d3c | 2 | 68.1 | 68.8
Sh2d3c | 3 | 56.6 | 85.3
Acsm1 | 1 | 108 | 88.2
Acsm1 | 2 | 115 | 98.4
Acsm1 | 3 | 94.1 | 140
Btg4 | 1 | 62.8 | 56.4
Btg4 | 2 | 91.5 | 98.3
Btg4 | 3 | 95.6 | 114
Lgmn | 1 | 71 | 88
Lgmn | 2 | 54.6 | 53.4
Lgmn | 3 | 81.6 | 86.5
Marchf2 | 1 | 57.3 | 52.6
Marchf2 | 2 | 84.8 | 85.8
Marchf2 | 3 | 120 (active) | 85.3
Gast | 1 | 81.1 | 83.8
Gast | 2 | 41.8 | 46.4
Gast | 3 | 66.8 | 59.7
